The source of these data is patent publication US7405063B2, “Biooxidation capabilities of Candida sp” (Cognis Corporation, priority 2000, dated 2008).

The series deals with C. tropicalis H5343. Put plainly: Bioconversion process (Phase 1), shake flask, NMR analysis. Format: cell-based. The note with it: Phase I screening summary.

Molecules are shown by their SMILES. The amount applied is not stated for every result.

`CCCCCCC(O)CCCCCCCCCCC(=O)O` (centres unmarked) [12-Hydroxystearic acid]: the “Reaction or Major Reaction Product” value is given as 7-hydroxyoctadecanedioic acid.

Regarding `C=CCCCCCCCCCCCC` [C14 a-Olefin, 1-tetradecene], the “Reaction or Major Reaction Product” value is on record as “(ω,ω-1) Dihydroxy Fatty Acid”.

With `C=CCCCCCCCCCC` [Dodecene], the “Reaction or Major Reaction Product” value is on record as “(ω,ω-1) Dihydroxy Fatty Acid”.

As for `C/C=C/CCCCCC` [trans-2-nonene], the “Reaction or Major Reaction Product” value is 2-enoic acid (recovery low).

Consider `CCCCCC/C=C/CCCCCC` [trans-7-tetradecene], for which the “Reaction or Major Reaction Product” value was 7-trans-tetradecenedioic acid.
